Experimental data taken from PubChem BioAssay AID2685 (National Center for Advancing Translational Sciences (NCATS), 2010).
The other results are listed elsewhere or left out. The main result of the screen is listed elsewhere. These columns were measured beside it and carry no call. Compounds called inactive in the main read-out are mostly missing here. Words in brackets tell the shape of the fitted curve; partial curves, single points and poor fits give uncertain potencies.

Experiment: qHTS Assay for Lipid Storage Modulators in Drosophila S3 Cells;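 as to cell number change: cells counted by Cell Tracker Red CMTPX staining in the red channel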
Details: BODIPY lipid droplet fluorescence, 18-24 h; for cell number change: measured here: cell count max response, cells fed with added oleic acid
In short: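 Drosophila S3 cells loaded with oleic acid (400 uM, as added) and compounds at several concentrations; lipid droplets imaged by 488-nm laser-scanning cytometry, 500–530 nm intensity and object ratio to cell channel. Percent activity normalized to 20 uM Triacsin C.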

[1] = measured here: lipid fluorescence (Fed channel) AC50, cells fed with added oleic acid
[2] = measured here: cell number channel AC50, cells fed with added oleic acid

SMILES	cell number change	AC50 [1]	AC50 [2]
Cc1cc(N2CCN(C)CC2)nc2ccc(NC(=O)c3cccnc3Cl)cc12	-4.08%		
CCN(CC)c1ccc(C(=O)NNC(=O)c2ccc3c(=O)n4c(nc3c2)CCC4)cc1	-1.24%	3.66 µM [rising, partial curve, poor fit]	
O=C(Cn1c(=O)oc2ccccc21)Nc1nc(-c2ccc(Br)cc2)cs1	-14.3%		
O=C(NC1CCCC1)C(c1cccs1)N(C(=O)c1ccco1)c1ccc2c(c1)OCCO2 (centres undefined)	-4.63%	0.731 µM [falling, full curve, poor fit]	
CC(=O)Nc1ccc(/C(C)=N/NC(=O)c2ccccc2Cl)cc1	-4.64%	0.461 µM [rising, partial curve]	
Cc1ccc(C(=O)OCC(=O)NCc2ccco2)s1	-59.3%	18.4 µM [falling, single point]	18.4 µM [falling, single point]
CCOc1cc(CNC(C)(C)C)ccc1OCC(=O)Nc1cccc(C(F)(F)F)c1	31.3%		
CCOc1ccc(CCNC(=O)CSc2n[nH]c(N)n2)cc1OCC	27.9%	13 µM [rising, partial curve, poor fit]	
CN1CCN(C(=O)CCCN2C(=O)/C(=C/c3ccccc3)SC2=S)CC1		0.231 µM [falling, full curve]	
O=C(NCCCN1CCOCC1)c1cc(-c2cccs2)on1	-35.9%	0.164 µM [falling, full curve, poor fit]	
O=C(Nc1ccc(Cl)c(C(F)(F)F)c1)C1CCCN(S(=O)(=O)c2cnc[nH]2)C1 (centres undefined)	12.4%		
COc1ccc(NC(=S)NCCN2CCC(C)CC2)cc1	3.65%	1.12 µM [falling, full curve]	
COc1ccc(S(C)(=O)=O)cc1S(C)(=O)=O	-9.26%		
CCOC(=O)N1CCC(NC(=O)C2CCN(C(=O)N3CC(C)Oc4ccc(C)cc43)CC2)CC1 (centres undefined)	-17.5%		0.326 µM [falling, full curve, poor fit]
CC1CCCc2sc3nc(NCc4ccco4)n4ncnc4c3c21 (centres undefined)	-37%	18.4 µM [falling, single point]	14.6 µM [falling, single point]
CCOC(=O)c1cc(C(C)=O)c(=O)[nH]c1C	-2.16%	0.411 µM [rising, single point]	
CC(=O)Nc1cccc(C(=O)N(Cc2ccccc2)Cc2ccccc2)c1	-33.9%	20.6 µM [falling, single point]	25.9 µM [falling, single point]
O=C(NNC(=O)C1CCCC1)c1ccc(F)cc1	24.6%		
CCOc1ccc(Cn2c(=O)sc3ccccc32)cc1OC	12.2%	2.91 µM [rising, partial curve]	
COc1ccccc1NC(=O)NC(=O)N(C(C)C)S(C)(=O)=O	47.1%	29.1 µM [rising, single point]	29.1 µM [rising, single point]
Cc1nnsc1-c1nnc(SCC(=O)c2ccccc2)n1C1CC1	9.74%	6.51 µM [rising, single point]	
COC(=O)CSc1snnc1-c1ccc(Cl)cc1Cl	-29.9%	29.1 µM [falling, single point]	

SMILES	cell number change	AC50 [1]	AC50 [2]
O=C1CSC(c2cccs2)N1c1ccccc1 (centres undefined)	-1.12%	0.259 µM [falling, full curve, poor fit]	
CCCCn1c(N)c(N(CCOC)C(=O)c2ccc(NC3CC3)c([N+](=O)[O-])c2)c(=O)[nH]c1=O		5.17 µM [rising, full curve]	
Cc1ccc(C(=O)NN=C2CCCCCC2)s1	-1.98%	14.6 µM [rising, partial curve]	
Cc1ccc(C(=O)NCCNC(=O)c2ccccc2)cc1	-6.86%	25.9 µM [falling, partial curve]	
O=C(O)CC/C(=N\NC(=O)c1ccc(F)cc1)c1ccc(Br)cc1	74.2%		4.61 µM [rising, full curve]
CC(C)CNc1nc(N)c([N+](=O)[O-])c(NCC2CCCO2)n1 (centres undefined)		5.17 µM [rising, partial curve]	
Cc1c(OCC(=O)NCC2CCC(C(=O)NCCCO)CC2)ccc2c(-c3ccccc3)cc(=O)oc12 (centres undefined)	0.895%	1.46 µM [rising, partial curve, poor fit]	
CN1/C(=C/C=C(C#N)C#N)C(C)(C)c2ccccc21		18.4 µM [falling, single point]	
CCN(CC)CCN(C(=O)c1cc2c(ccc3ccccc32)oc1=O)c1nc2cc3c(cc2s1)OCCO3	1.51%		
CCOC(=O)N1CCN(CC(O)c2ccccc2)CC1 (centres undefined)	50.8%		0.731 µM [rising, partial curve]
OC(c1cc(C(F)(F)F)nc2c(Cl)cc(Cl)cc12)C1CCCCN1 (centres undefined)	-49.1%	23.1 µM [falling, single point]	25.9 µM [falling, single point]
Cn1c(=O)c2c(nc(NN=C3CCCCC3)n2C)n(C)c1=O	22.2%	20.6 µM [rising, single point]	
O=C(Cc1ccccc1)NCCn1ccc2ccccc21		3.66 µM [falling, partial curve, poor fit]	
Cc1ccc(NCc2nnc(SCC(=O)N(Cc3ccccc3)C(C)(C)C)o2)c(C)c1	5.56%		
CCOC(=O)C1CCN(Cc2cc(=O)oc3c(C)c(C)ccc23)CC1	71.2%		32.6 µM [rising, partial curve, poor fit]
CCN1CCN(c2ccc(S(=O)(=O)N3CCCCC3)cc2NC(=O)COc2ccccc2)CC1	40.1%		13 µM [rising, partial curve]
CCC(C(=O)O/N=C(\N)c1ccc(C)cc1)c1ccccc1 (centres undefined)	71.4%		20.6 µM [rising, partial curve]
CCc1c(C)[nH]n(-c2ccc(Oc3ccccc3)c(S(=O)(=O)O)c2)c1=O	1.68%		
Cc1ccc(C)c(Cn2c(=O)n(CCC(=O)NCc3ccco3)c(=O)c3ccccc32)c1	51.5%	0.651 µM [rising, partial curve, poor fit]	18.4 µM [rising, partial curve]
COc1cc2c(cc1NC(=O)COC(=O)/C=C/c1ccc([N+](=O)[O-])cc1)oc1ccccc12	15.4%	3.66 µM [rising, partial curve, poor fit]	
O=S(=O)(NCCc1ccccc1)c1cccs1	24.8%	29.1 µM [rising, single point]	0.00411 µM [rising, full curve, poor fit]
CCN(CC(=O)Nc1ccc(OC)cc1)C(=O)CSCC(=O)Nc1cc(C)on1	-2.85%		

SMILES	cell number change	AC50 [1]	AC50 [2]
C=CCOC(=O)/C(=C\c1ccccc1)NC(=O)c1ccco1	7.82%	18.4 µM [rising, partial curve]	
O=C(NCc1ccccc1F)C1CCCN(S(=O)(=O)c2ccc(-n3cnnn3)cc2)C1 (centres undefined)			0.146 µM [rising, full curve, poor fit]
CC1=NC(C(F)(F)F)(C(F)(F)F)C(C#N)=C(C)N1	15.8%	25.9 µM [falling, partial curve]	
O=C(Nc1ccc(Cl)cc1C(=O)NCc1cccnc1)c1ccco1		2.59 µM [rising, partial curve]	2.31 µM [rising, partial curve]
O=C(COc1ccccc1Cl)N(Cc1ccco1)C1CCS(=O)(=O)C1 (centres undefined)	-4.26%	29.1 µM [rising, single point]	
O=C(c1ccc(Cl)cc1)N1CCN(c2ccnc3cc(Cl)ccc23)CC1	-11.8%	1.64 µM [falling, partial curve, poor fit]	
Cc1cc(NC(=O)CN2CC(C)OC(C)C2)n(-c2nc3ccccc3s2)n1 (centres undefined)		1.84 µM [rising, full curve]	1.64 µM [rising, partial curve]
N#Cc1cccc(NC(=O)CN2C(=O)NC3(CCCCCC3)C2=O)c1	-9.16%	3.26 µM [falling, single point]	
Cc1cc(C(=O)NC2CCCN(Cc3ccc(Cl)cc3)C2)c(C)o1 (centres undefined)	51.9%		23.1 µM [rising, single point]
CC(=O)c1ccc(OCC(O)CN2CCN(CCO)CC2)cc1 (centres undefined)	-11.8%	0.13 µM [falling, full curve, poor fit]	
C[C@H](NC(=O)[C@@H]1CSC2c3ccccc3C(=O)N21)C(=O)NC1CCCC1 (some centres undefined)	-22.6%		
O=C(COc1cc2oc(=O)c3c(c2cc1Cl)CCC3)NCCCn1ccnc1	-39.5%	6.51 µM [falling, partial curve]	23.1 µM [falling, partial curve]
O=C(COC(=O)c1ccc(S(=O)(=O)N2CCCCC2)cc1)NCc1ccco1	-2.44%		
CC(=O)Nc1ccc(CC(=O)O)cc1		29.1 µM [rising, single point]	
COc1cc(S(=O)(=O)NCCc2ccc3c(c2)OCO3)ccc1-n1cnnn1	24.1%		0.092 µM [rising, full curve, poor fit]
Cc1sc2c(c1C)c(=O)nc1n2Cc2ccccc2-1	33.4%		16.4 µM [rising, single point]
C=CCn1cc(CN2CCC(C(=O)Nc3ccc(Oc4cccnc4)cc3)CC2)c(C)n1	8.73%		
C=CCn1c(SCC(=O)N2CCOCC2)nc2sc(C)c(C)c2c1=O	-2.38%		
CCOc1ccccc1N1CC(C(=O)Nc2ccccc2CC)CC1=O (centres undefined)	-8.97%		
COc1ccc(OCC(O)COc2ccc(OC)cc2)cc1	30.1%		29.1 µM [rising, single point]

One compound at a time (already shown):
C=CCn1c(SCC(=O)N2CCOCC2)nc2sc(C)c(C)c2c1=O in the list: cell number change: -2.38%
Cc1cc(C(=O)NC2CCCN(Cc3ccc(Cl)cc3)C2)c(C)o1 (centres undefined) in the list: cell number change: 51.9%; AC50 [2]: 23.1 µM [rising, single point]
O=C(c1ccc(Cl)cc1)N1CCN(c2ccnc3cc(Cl)ccc23)CC1 in the list: cell number change: -11.8%; AC50 [1]: 1.64 µM [falling, partial curve, poor fit]
CC(=O)Nc1ccc(CC(=O)O)cc1 in the list: AC50 [1]: 29.1 µM [rising, single point]
